Laboratory results: US5780242A, “Bioassay for the screening of ION channel active molecules” (priority 1995, dated 1998)
“Also recorded” adds a separate entry of the source. Counter-ions that a name gives are not always drawn.

System: AChE preparation (sodium channel neuroreceptor)
Experiment: Circular dichroism bioassay at 222 nm: temperature-dependent helix-coil transition of the AChE/neuroreceptor preparation in presence of drug
Assay type: binding, bovine
Conditions: hydrochloride monohydrate
Protocol: A baseline of the solution is obtained using 222 nm without removing the cell after a run is begun to allow for thermal stabilization. Prior to adding the drug to the enzyme, a blank run consisting only of the drug at the same concentration used in the enzyme study is made. To obtain control data, temperature changes of 5 degrees centigrade in the neuroreceptor solution alone are made using a Forma water bath. Then the drug is added to a sample of the purified neuroreceptor solution, and the stabilizing effect of the drug on the temperature-related conformational changes is noted. All temperature runs are allowed to equilibrate for one hour before data is collected. Macromolecular samples for control and drug interaction have the same alpha helix content prior to drug addition. […]
All studies are made in 1 mm, 5 mm and 2 mm cells using a Jouan Dichrograph II at 1×10^-5 O.D./mm sensitivity. […] Protein concentration is determined empirically and then measured by the Lowry method after the run. […]
The routine consists of beginning a CD spectral scan followed by running each activity blank at that temperature using 3 minute reading intervals. […] The data recorded consists of duplicates of CD spectra with cell temperatures varying 5 degrees centigrade at 222 nm. […]

Structure (SMILES): CCN(CC)CC(=O)Nc1c(C)cccc1C [Lidocaine, Lidocaine hydrochloride monohydrate]
- stabilization of helix in preparations not freshly prepared (enzyme preparations more than one week old / not freshly prepared): not observed; also recorded: will not be protected
- stabilization of the alpha helix / prevention of the helical transition between 30° C. and 35° C. (fresh preparations, 222 nm, pH 7.0): appear to stabilize the helix; also recorded: prevent the helical transition; also recorded: prevented this partial uncoiling of the alpha-helix; also recorded: successfully stabilizes the coiled alpha helix
